Our source for the binding values is publication PMC10064699.

Amino acid sequences for entries named in this document (tags omitted). A change or cut given only in a name is not applied to a line headed by its entry.
UniProt Q386W1: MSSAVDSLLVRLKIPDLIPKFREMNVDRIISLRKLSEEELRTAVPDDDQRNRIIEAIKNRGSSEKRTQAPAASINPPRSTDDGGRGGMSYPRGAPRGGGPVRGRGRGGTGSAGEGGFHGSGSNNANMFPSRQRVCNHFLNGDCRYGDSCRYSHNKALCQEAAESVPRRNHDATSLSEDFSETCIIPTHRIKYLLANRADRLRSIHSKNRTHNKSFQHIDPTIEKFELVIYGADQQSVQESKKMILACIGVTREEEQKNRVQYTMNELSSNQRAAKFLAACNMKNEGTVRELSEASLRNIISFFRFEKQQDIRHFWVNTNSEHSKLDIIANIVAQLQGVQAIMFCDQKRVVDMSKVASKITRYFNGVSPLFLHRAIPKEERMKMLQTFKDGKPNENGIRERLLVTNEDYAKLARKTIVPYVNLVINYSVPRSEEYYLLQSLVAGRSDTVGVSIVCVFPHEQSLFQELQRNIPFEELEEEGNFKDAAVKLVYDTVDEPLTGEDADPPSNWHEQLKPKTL
UniProt Q57TY3: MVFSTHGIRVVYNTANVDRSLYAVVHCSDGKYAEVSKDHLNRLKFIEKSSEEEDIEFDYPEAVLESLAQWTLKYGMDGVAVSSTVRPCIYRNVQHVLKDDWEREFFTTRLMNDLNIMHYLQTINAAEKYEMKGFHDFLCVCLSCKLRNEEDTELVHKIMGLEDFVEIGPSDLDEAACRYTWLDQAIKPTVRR

Assay [1] deals with TAP-ZC3H41 (Trypanosoma brucei) (UniProt Q386W1). In words: affinity purification with mass spectrometry; tandem affinity purification as above, cell lysate treated with a mixture of RNases A and T1.
Assay [2] shares this target. In words: affinity purification with mass spectrometry; tandem affinity purification (TAP) from 1-2 x 10^10 procyclic T. brucei cells expressing the TAP-tagged bait; SDS-PAGE, SYPRO staining, bands identified by MALDI-TOF/TOF.

These are yes or no findings as the source states them, for the method shown. In cells and extracts the contact can be indirect. These calls come from enrichment with a bait or labelling near it, and not all partners need be listed.

On to “ZC3H41-associated protein (Z41AP), endogenous (from UniProt Q57TY3)”, for which the binding result in assay [1] and in assay [2] was “binds” throughout.
